{
  "source": "PubChem BioAssay AID504467",
  "about": "(National Center for Advancing Translational Sciences (NCATS), 2011)",
  "note": "The campaign covered roughly 330,000 compounds. About 7,700 (2.3%) were called active. Inconclusive results, whose numbers are uncertain, are shown with a selection of clear calls. Calls come from the whole dose curve; as a rule, active = well fitted inhibition curve with a large enough effect; inconclusive = small, poorly fitted or top-dose-only effect, or effect the other way; inactive = flat fitted curve, though single readings scatter. Potencies of inconclusive entries are doubtful fits and often do not repeat. Potency is the fitted concentration of half-maximal effect.",
  "data": [
    {"assay": "qHTS screen for small molecules that inhibit ELG1-dependent DNA repair in human embryonic kidney (HEK293T) cells expressing luciferase-tagged ELG1; note: nearly all actives have a fitted effect of over 55% in size", "details": "HEK293T ELG1-luciferase reporter, luminescence, 16 h, DNA damage induced by 5-fluorouridine; series mostly up to 46.1 µM", "how_it_was_run": "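Cells (2,000 per well) received 5-fluorouridine plus test compound or DMSO and were incubated 16 hr at 37 °C, 5% CO2. Luciferase activity was read by luminescence 30 min after ONE-Glo addition; signal suppression marked inhibition of damage-induced ELG1 function.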", "values": [
      {"smiles": "Cc1ccc(N2C(=O)NC(=O)C(CCc3ccccn3)(Cc3ccc(F)cc3)C2=O)cc1", "note": "(centres undefined)", "Potency": "inactive"},
      {"smiles": "CCCCN1C(=O)/C(=C/C=C/c2ccco2)C(=O)NC1=S", "Potency": "inactive"},
      {"smiles": "Cc1ccc(NP(=O)(Oc2ccccc2F)Oc2ccccc2F)cc1C", "Potency": "inconclusive: 23.1 µM [inhibitor, single point]"},
      {"smiles": "CCn1nc(-c2ccccc2)nc2c(=O)n(C)c(=O)nc1-2", "Potency": "inconclusive: 14.6 µM [inhibitor, partial curve]"},
      {"smiles": "CCOC(=O)C1(CCc2ccccc2)CCN(Cc2cccc3cnccc23)CC1", "Potency": "inconclusive: 29.1 µM [inhibitor, single point]"},
      {"smiles": "O=C(CSc1ccccc1)Nc1ccc(C(=O)Nc2cccc(O)c2)cc1", "Potency": "inconclusive: 23.1 µM [activator, single point]"},
      {"smiles": "Cc1ccsc1C(=O)C1CCCN(Cc2cnc(N3CCCC3)s2)C1", "note": "(centres undefined)", "Potency": "inactive"},
      {"smiles": "CCN(CC)c1ccc(/C=C2/C(=O)NC(=O)N(Cc3ccco3)C2=O)cc1", "Potency": "inconclusive: 23.1 µM [activator, single point]"},
      {"smiles": "Cc1ccc(N/N=C/c2c(O)n(-c3ccccc3)c(=O)[nH]c2=O)cc1", "Potency": "active: 4.11 µM"},
      {"smiles": "CCc1ccc(OCCCN=C(C)c2c(O)n(C)c(=O)n(C)c2=O)cc1", "Potency": "inconclusive: 25.9 µM [inhibitor, single point]"},
      {"smiles": "Cc1ccc(CSc2ncccc2C(=O)O)cc1", "Potency": "inconclusive: 29.1 µM [activator, single point]"},
      {"smiles": "O=C(c1cc2cc3ccc(Cl)cc3nc2o1)N1CCC2(CC1)OCCO2", "Potency": "inconclusive: 18.4 µM [activator, partial curve, poor fit]"},
      {"smiles": "COc1ccc(-[n+]2c(-c3ccccc3)cc(-c3ccccc3)cc2-c2ccccc2)cc1", "Potency": "inconclusive: 16.4 µM [inhibitor, partial curve]"},
      {"smiles": "COC(=O)C1=C(c2ccc3ccccc3c2)C[C@@H]2CC[C@H]1N2C(=O)N1CCCC1", "Potency": "inactive"},
      {"smiles": "COc1c(C)cc(C(=O)C2CCCN(Cc3ccccn3)C2)cc1C", "note": "(centres undefined)", "Potency": "inconclusive: 18.3 µM [inhibitor, single point]"},
      {"smiles": "CCOC(=O)c1ccc(NC(=O)CSc2ccc(-c3cccnc3)nn2)cc1", "Potency": "inconclusive: 23.1 µM [inhibitor, partial curve, poor fit]"},
      {"smiles": "CC12CC[C@H]3[C@@H](CCC4(O)C[C@H](O)CCC34/C=N/NC(=O)c3ccccc3O)C1(O)CCC2C1=CC(=O)OC1", "note": "(some centres undefined)", "Potency": "inconclusive: 29.1 µM [inhibitor, single point]"},
      {"smiles": "OCC(Br)CBr", "note": "(centres undefined)", "Potency": "inactive"},
      {"smiles": "CCCCn1c(O)c(C(CC)=Nc2ccc(C(=O)O)cc2)c(=O)[nH]c1=O", "Potency": "inconclusive: 3.66 µM [inhibitor, partial curve, poor fit]"}
    ]}
  ]
}
